± gives the standard deviation of the averaged measurements. Some of the results follow.
Compound: Nc1nc2c(ncn2[C@@H]2O[C@H](COP(=O)(O)OP(=O)(O)OP(=O)(O)O)[C@@H](O)[C@H]2O)c(=O)[nH]1 [guanosine triphosphate]
Test: NP40-soluble protein abundance relative to vehicle (solubility fold change) (ratio); higher = more soluble protein in presence of GTP
In short: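 Eight concentrations, 0.1 to 10 mM, were tested on Jurkat crude lysate for 10 min at room temperature and then 3 min at 37 °C, in three independent experiments. The lysate was solubilised with 0.8% NP40 and benzonase, ultracentrifuged, and the supernatant TMT-labelled for LC-MS/MS. Each value is the fold change against the detergent-processed vehicle in its own replicate, from vsn-normalised intensities.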

Chains of the proteins cited; added tags and fusions are not shown. Lines headed by an entry give the natural chain unless they say otherwise; changes in a name come on top.
UniProt Q96GA3: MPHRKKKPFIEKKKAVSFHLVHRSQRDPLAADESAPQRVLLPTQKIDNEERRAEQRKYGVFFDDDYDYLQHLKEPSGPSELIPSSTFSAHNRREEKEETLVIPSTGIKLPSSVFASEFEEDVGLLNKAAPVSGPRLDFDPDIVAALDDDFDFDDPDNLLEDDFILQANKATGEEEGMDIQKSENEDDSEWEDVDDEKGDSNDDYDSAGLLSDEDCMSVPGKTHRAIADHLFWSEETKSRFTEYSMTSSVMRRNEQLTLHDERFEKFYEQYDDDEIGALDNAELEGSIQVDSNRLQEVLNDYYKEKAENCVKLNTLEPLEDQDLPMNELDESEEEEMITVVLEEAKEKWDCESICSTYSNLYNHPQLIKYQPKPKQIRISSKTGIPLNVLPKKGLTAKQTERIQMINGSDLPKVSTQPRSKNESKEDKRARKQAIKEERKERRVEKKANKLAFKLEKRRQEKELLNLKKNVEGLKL
UniProt Q8WWK9: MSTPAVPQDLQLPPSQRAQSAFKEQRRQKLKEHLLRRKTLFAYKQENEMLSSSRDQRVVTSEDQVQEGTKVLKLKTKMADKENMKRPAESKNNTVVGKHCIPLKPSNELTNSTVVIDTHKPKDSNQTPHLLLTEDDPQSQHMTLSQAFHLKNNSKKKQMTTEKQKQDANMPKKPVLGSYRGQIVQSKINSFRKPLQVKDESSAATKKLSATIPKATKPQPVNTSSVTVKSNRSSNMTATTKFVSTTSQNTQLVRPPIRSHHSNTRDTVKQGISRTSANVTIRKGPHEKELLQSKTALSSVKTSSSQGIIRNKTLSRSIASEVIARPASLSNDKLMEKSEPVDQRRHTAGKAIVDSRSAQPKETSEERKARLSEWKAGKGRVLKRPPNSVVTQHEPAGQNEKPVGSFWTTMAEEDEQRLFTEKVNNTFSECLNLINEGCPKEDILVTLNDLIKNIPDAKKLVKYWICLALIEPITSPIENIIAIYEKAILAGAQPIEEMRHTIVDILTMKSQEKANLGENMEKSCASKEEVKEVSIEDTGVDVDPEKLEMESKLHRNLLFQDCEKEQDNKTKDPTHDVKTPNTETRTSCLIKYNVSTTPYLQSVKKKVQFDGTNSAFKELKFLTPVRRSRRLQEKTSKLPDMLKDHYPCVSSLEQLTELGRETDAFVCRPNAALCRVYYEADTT
UniProt Q969H8: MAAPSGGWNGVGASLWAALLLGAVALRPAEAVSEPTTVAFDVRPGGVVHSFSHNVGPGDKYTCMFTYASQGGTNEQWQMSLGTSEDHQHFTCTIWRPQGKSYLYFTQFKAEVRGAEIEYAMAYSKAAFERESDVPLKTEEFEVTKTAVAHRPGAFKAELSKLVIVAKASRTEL
UniProt Q8WWV3: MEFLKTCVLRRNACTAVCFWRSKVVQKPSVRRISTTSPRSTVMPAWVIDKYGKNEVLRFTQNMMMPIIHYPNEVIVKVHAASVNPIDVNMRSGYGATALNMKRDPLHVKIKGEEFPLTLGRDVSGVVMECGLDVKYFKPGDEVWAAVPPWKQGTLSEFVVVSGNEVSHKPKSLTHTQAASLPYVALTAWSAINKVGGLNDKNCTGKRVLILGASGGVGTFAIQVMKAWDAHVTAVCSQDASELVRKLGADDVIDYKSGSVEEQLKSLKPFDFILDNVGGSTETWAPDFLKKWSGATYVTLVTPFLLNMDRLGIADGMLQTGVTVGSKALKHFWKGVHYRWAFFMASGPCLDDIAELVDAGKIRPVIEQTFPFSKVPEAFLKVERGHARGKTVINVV
UniProt Q8WUY1: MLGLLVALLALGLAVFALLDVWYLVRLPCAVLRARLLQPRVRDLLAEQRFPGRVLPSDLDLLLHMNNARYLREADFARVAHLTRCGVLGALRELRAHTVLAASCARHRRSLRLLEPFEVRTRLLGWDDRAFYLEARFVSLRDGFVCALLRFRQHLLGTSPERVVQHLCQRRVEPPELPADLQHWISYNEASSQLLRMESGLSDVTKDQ
UniProt Q8WW59: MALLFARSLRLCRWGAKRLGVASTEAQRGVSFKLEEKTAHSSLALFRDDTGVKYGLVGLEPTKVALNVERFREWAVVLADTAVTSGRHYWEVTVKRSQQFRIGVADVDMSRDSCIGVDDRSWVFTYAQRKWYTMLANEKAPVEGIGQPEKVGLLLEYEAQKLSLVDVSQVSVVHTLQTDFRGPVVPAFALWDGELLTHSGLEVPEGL
UniProt Q96DU3: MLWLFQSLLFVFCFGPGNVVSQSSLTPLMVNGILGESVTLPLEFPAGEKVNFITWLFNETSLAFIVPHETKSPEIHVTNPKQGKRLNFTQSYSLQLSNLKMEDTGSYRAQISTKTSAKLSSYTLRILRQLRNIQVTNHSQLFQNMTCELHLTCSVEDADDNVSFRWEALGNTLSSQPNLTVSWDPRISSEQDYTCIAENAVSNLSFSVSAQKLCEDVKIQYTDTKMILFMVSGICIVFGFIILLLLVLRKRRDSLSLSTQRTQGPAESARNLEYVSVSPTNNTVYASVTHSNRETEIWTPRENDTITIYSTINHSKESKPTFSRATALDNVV
UniProt Q92499: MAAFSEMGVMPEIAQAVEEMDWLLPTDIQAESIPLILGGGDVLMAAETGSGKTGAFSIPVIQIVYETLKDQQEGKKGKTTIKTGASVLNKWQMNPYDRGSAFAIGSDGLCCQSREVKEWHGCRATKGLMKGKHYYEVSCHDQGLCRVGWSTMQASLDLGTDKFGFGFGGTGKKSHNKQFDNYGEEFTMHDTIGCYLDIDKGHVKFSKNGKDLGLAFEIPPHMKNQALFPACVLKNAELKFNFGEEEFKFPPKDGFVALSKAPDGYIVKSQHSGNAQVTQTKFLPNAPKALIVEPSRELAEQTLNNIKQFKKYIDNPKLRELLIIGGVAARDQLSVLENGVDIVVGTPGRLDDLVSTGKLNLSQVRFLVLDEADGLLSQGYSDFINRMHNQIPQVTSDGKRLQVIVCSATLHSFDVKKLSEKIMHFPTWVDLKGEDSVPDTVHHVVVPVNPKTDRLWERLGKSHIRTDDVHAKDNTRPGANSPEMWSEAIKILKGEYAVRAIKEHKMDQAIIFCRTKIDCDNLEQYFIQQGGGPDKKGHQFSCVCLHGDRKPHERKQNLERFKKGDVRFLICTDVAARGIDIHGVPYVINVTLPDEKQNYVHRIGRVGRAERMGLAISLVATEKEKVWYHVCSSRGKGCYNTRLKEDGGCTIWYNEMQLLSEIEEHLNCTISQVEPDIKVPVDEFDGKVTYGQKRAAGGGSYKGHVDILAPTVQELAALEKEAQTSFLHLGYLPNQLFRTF
UniProt Q96A65: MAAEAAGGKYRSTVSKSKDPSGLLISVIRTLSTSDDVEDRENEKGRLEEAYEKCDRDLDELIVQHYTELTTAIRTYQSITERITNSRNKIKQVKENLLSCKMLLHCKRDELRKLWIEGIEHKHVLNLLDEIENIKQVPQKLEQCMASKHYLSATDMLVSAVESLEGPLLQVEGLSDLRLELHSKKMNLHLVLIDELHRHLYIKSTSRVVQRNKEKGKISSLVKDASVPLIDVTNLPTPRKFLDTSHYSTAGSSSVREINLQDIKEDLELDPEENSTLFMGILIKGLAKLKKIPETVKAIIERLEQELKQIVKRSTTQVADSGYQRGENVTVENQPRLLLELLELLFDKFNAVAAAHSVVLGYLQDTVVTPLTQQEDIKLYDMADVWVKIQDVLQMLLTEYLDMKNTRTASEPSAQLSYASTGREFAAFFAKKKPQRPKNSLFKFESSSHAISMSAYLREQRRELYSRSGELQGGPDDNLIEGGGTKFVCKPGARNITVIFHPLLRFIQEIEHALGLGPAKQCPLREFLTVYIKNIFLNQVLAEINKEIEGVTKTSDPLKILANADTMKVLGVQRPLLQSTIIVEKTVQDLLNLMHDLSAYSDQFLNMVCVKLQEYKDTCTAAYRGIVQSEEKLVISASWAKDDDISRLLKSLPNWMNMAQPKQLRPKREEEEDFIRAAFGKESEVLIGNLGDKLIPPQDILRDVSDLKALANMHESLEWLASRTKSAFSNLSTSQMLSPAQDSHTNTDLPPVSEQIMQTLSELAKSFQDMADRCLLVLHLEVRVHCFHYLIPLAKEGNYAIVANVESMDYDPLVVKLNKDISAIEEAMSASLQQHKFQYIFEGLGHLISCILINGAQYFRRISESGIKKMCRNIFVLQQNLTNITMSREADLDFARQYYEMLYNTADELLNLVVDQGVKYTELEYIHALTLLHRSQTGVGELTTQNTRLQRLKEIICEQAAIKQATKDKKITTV
UniProt Q96J02: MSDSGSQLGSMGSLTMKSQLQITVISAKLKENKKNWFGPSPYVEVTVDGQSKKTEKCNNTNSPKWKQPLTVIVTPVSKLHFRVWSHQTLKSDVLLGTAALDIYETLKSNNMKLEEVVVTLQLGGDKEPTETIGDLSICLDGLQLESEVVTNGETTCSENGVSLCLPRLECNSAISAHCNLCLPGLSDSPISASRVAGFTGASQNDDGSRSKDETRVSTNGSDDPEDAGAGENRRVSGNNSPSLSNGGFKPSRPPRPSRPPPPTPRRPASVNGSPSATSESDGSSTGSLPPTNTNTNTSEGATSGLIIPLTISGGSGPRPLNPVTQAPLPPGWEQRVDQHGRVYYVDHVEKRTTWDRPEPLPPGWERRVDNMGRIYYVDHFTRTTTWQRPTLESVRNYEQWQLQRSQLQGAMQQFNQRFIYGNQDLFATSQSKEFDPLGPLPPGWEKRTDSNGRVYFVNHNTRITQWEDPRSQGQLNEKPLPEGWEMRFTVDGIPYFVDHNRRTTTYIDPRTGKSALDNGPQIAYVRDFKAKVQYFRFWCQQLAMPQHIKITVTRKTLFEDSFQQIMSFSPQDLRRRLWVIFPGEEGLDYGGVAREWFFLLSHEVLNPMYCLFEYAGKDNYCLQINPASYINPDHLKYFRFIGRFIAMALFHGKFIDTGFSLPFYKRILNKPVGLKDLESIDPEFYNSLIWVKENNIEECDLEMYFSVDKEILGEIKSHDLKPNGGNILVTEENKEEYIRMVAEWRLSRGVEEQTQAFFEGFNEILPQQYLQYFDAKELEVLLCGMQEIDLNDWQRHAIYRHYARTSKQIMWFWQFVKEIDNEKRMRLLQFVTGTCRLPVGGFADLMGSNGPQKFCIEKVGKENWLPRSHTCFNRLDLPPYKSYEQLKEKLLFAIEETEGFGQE
UniProt Q8WXF1: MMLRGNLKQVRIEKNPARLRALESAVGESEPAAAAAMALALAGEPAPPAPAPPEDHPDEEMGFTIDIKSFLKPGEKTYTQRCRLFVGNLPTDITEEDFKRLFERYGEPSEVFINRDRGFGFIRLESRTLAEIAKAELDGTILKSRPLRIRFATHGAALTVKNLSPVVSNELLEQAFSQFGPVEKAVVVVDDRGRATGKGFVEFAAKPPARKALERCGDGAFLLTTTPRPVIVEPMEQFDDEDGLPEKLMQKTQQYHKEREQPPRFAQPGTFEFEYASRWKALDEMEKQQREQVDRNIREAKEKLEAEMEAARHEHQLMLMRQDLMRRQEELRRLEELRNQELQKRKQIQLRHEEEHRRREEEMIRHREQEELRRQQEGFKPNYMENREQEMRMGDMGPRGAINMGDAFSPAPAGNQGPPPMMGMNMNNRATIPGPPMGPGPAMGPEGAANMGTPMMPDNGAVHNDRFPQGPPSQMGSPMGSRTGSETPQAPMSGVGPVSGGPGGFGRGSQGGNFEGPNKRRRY
UniProt Q96AG3: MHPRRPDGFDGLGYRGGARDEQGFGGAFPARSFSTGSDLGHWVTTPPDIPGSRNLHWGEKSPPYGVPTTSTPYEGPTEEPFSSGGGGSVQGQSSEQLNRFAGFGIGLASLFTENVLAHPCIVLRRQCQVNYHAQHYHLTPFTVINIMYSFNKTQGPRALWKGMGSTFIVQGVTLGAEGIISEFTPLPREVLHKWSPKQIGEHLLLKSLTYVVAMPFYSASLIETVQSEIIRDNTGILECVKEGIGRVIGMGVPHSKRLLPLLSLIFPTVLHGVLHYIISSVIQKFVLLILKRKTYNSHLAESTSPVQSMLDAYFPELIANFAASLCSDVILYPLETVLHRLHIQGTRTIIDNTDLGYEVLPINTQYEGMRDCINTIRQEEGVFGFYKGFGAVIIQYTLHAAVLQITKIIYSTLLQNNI
UniProt Q96BR5: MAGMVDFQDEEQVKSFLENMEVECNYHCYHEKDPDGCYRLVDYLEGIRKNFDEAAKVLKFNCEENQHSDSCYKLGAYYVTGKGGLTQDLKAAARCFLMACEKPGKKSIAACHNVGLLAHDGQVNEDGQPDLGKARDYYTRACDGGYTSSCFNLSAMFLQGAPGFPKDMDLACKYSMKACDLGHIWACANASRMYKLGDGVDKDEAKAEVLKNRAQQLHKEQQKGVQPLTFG
UniProt Q96D96: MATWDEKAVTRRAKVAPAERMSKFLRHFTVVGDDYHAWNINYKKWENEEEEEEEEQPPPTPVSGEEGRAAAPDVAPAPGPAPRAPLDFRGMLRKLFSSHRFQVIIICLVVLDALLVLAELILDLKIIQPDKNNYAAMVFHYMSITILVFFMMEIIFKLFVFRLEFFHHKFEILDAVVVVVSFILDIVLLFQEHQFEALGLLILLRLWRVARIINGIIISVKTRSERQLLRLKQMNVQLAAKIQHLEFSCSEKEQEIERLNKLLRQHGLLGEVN

Target	NP40-soluble protein abundance (concentration: 0.1mM)	NP40-soluble protein abundance (concentration: 0.5mM)	NP40-soluble protein abundance (concentration: 1mM)	NP40-soluble protein abundance (concentration: 2mM)	NP40-soluble protein abundance (concentration: 4mM)	NP40-soluble protein abundance (concentration: 6mM)	NP40-soluble protein abundance (concentration: 8mM)	NP40-soluble protein abundance (concentration: 10mM)
LTV1 (UniProt Q96GA3)	1.05 ± 0.11	1.06 ± 0.12	1.17 ± 0.14	1.16 ± 0.11	1.12 ± 0.16	1.09 ± 0.12	1.08 ± 0.17	1.08 ± 0.21
UniProt Q8WWK9 and related entries	1.05 ± 0.038	0.984 ± 0.07	1.06 ± 0.1	1.04 ± 0.082	1.08 ± 0.064	1.08 ± 0.052	1.16 ± 0.064	1.16 ± 0.033
UniProt Q969H8	0.971 ± 0.023	0.949 ± 0.034	0.884 ± 0.026	0.85 ± 0.019	0.834 ± 0.05	0.853 ± 0.057	0.8 ± 0.046	0.764 ± 0.085
UniProt Q8WWV3 and related entries	1.02 ± 0.042	1.02 ± 0.056	0.958 ± 0.03	0.939 ± 0.018	0.942 ± 0.007	0.895 ± 0.028	0.922 ± 0.03	0.883 ± 0.061
UniProt Q8WUY1	0.964 ± 0.059	0.919 ± 0.07	0.932 ± 0.068	0.983 ± 0.073	1 ± 0.085	1.01 ± 0.034	0.977 ± 0.058	0.988 ± 0.071
SPRYD4 (UniProt Q8WW59)	0.997 ± 0.087	0.982 ± 0.034	0.908 ± 0.029	0.935 ± 0.068	0.952 ± 0.067	0.872 ± 0.031	0.891 ± 0.045	0.8721 ± 0.0083
UniProt Q96DU3 and related entries	0.991 ± 0.081	0.918 ± 0.077	0.966 ± 0.057	0.979 ± 0.077	1.07 ± 0.16	0.983 ± 0.02	0.988 ± 0.11	1 ± 0.053
DDX1 (UniProt Q92499)	1.02 ± 0.024	1.02 ± 0.066	0.941 ± 0.027	0.971 ± 0.072	0.997 ± 0.059	0.993 ± 0.063	0.971 ± 0.013	0.961 ± 0.038
EXOC4 (UniProt Q96A65)	1.037 ± 0.0064	1.04 ± 0.031	1.01 ± 0.036	1.01 ± 0.063	1.03 ± 0.048	0.988 ± 0.078	1.03 ± 0.017	0.995 ± 0.045
UniProt Q96J02 and related entries	1.08 ± 0.078	1.09 ± 0.042	1.08 ± 0.062	1.1 ± 0.078	1.04 ± 0.077	1.07 ± 0.051	1.06 ± 0.052	1.04 ± 0.056
PSPC1 (UniProt Q8WXF1)	0.971 ± 0.054	0.972 ± 0.058	0.932 ± 0.069	0.939 ± 0.039	0.982 ± 0.061	0.948 ± 0.052	0.972 ± 0.082	0.954 ± 0.071
UniProt Q96AG3 and related entries	1.02 ± 0.015	0.987 ± 0.034	1 ± 0.053	1.01 ± 0.02	1.05 ± 0.028	1.03 ± 0.076	1.08 ± 0.018	1.04 ± 0.11
UniProt Q96D71-3|Q96D71	0.912 ± 0.034	0.932 ± 0.061	0.973 ± 0.047	0.89 ± 0.05	0.924 ± 0.023	0.955 ± 0.022	1.03 ± 0.053	1.05 ± 0.12
UniProt Q96BR5	0.969 ± 0.051	0.95 ± 0.056	0.955 ± 0.055	0.928 ± 0.065	0.933 ± 0.072	0.929 ± 0.071	0.948 ± 0.05	0.934 ± 0.065
UniProt Q96D96 and related entries	1.08 ± 0.022	1.05 ± 0.013	1.03 ± 0.046	1.02 ± 0.065	1.038 ± 0.0064	1.06 ± 0.033	1.01 ± 0.074	1.01 ± 0.021

As entered above:
Under NP40-soluble protein abundance (concentration: 6mM), UniProt Q96BR5 is entered as 0.929 ± 0.071
Under NP40-soluble protein abundance (concentration: 10mM), UniProt Q96J02 and related entries is entered as 1.04 ± 0.056

From the supplement of paper PMC6411743
